The list shows a part of the results.
system: T1, CTL2-GFP (C. trachomatis L2/434/Bu, GFP-expressing); design: species or system HeLa; Intracellular C. trachomatis growth in HeLa cells, bulk GFP fluorescence relative to DMSO; details: bulk GFP, single well; 28.5 h, 10 µM; inhibitor
T1 construct: L2/434/Bu, GFP-expressing

Row | SMILES | % of control remaining
1 | O=C(NC(=O)N1CCC2(C1)NCCc1c2[nH]c2ccccc12)c1ccccc1 (stereo not shown) [CBK046985] | 129.417%
2 | Cc1c(C(=O)NC(C)c2ccncc2)oc2c(F)cccc12 (stereo not shown) [CBK282105] | 132.116%
3 | c1ccc2sc(SCCN3CCCCC3)nc2c1 [CBK016366] | 117.055%
4 | CCOC(=O)c1sc2nc(C(C)N3CCOCC3)[nH]c(=O)c2c1C (stereo not shown) [CBK305862] | 140.506%
5 | COC(=O)CCCNS(=O)(=O)c1ccc([N+](=O)[O-])cc1 [CBK261172] | 91.5713%
6 | Cc1nn(C)c(C)c1CCC(=O)N1CCc2ncc(Cl)cc2C1 [CBK284851] | 77.2393%
7 | Cc1c(NC(=O)CSCc2ccc(Cl)cc2Cl)cccc1C(=O)O [CBK131704] | 104.199%
8 | O=S(=O)(NC(c1c[nH]c2ccccc12)C(Cl)(Cl)Cl)c1ccccc1 (stereo not shown) [CBK263279] | 84.0813%
9 | CC1(C)CC(=O)C2=C(C1)Nc1nn(-c3ccccc3)c(O)c1C2c1cccs1 (stereo not shown) [CBK266333] | 140.251%
10 | CC(CC(=O)NCC1(C)COC1)n1cnc2ccccc21 (stereo not shown) [CBK281755] | 139.154%
11 | O=C(Cc1ccc(Cl)c(Cl)c1)N1CCN(c2ncccn2)CC1 [CBK144497] | 104.455%
12 | Nc1ccccc1Sc1ncccc1C(F)(F)F [CBK093758] | 159.037%
13 | Oc1cccc(-c2cc(CC3(NCc4ccc(F)cc4)COC3)no2)c1 [CBK289646] | 152.393%
14 | O=C(c1ccco1)c1coc2ccc(O)cc12 [CBK115570] | 117.432%
15 | c1ccc(CCn2nnnc2CN2CCN(c3ccccc3)CC2)cc1 [CBK069271] | 102.746%
16 | Nc1nonc1-n1nnc(C(=O)N/N=C/c2ccc([N+](=O)[O-])cc2)c1-c1ccccc1 [CBK261992] | 102.128%
17 | c1c2c(cc3sc(N4CCCCC4)nc13)OCCO2 [CBK287497] | 156.757%
18 | CC(NC(=O)c1c(Cl)c(Cl)c(Cl)c(Cl)c1C(=O)O)c1cccs1 (stereo not shown) [CBK264722] | 122.183%
19 | CNc1snc(N2CCOCC2)c1C#N [CBK011453] | 116.947%
20 | CC(C)(CNC(=O)Cn1cc(C(=O)NC2CCCCC2)ccc1=O)c1ccccc1F [CBK286099] | 117.184%

Some of the entries so far, tab-delimited.
Row	SMILES	% of control remaining
6	Cc1nn(C)c(C)c1CCC(=O)N1CCc2ncc(Cl)cc2C1 [CBK284851]	77.2393%
17	c1c2c(cc3sc(N4CCCCC4)nc13)OCCO2 [CBK287497]	156.757%
18	CC(NC(=O)c1c(Cl)c(Cl)c(Cl)c(Cl)c1C(=O)O)c1cccs1 (stereo not shown) [CBK264722]	122.183%

(continued)

Row | SMILES | % of control remaining
21 | CC(C)c1csc(NC(=O)C2CN(S(=O)(=O)c3ccc(F)cc3)C2)n1 [CBK285944] | 91.0739%
22 | Cc1nn(Cc2cccc3ccccc23)c(C)c1NC(=O)c1ccccn1 [CBK269936] | 78.3243%
23 | CCN(CC)C(=O)CC1SC(NCC2CCCCC2)=NC1=O (stereo not shown) [CBK067923] | 129.188%
24 | COc1ccc(C(C)C)cc1-c1cnc2nc(NS(C)(=O)=O)ccc2c1 [CBK085672] | 102.736%
25 | CCCCc1c(O)[nH]c2nc3ccccc3n2c1=O [CBK287875] | 105.141%
26 | CCC1c2cccn2CCN1Cc1cncn1CC (stereo not shown) [CBK283012] | 128.181%
27 | O=C(Nc1ccccc1)O[C@@H]1CO[C@H]2[C@@H]1OC[C@@H]2Nc1nccc(-c2cccs2)n1 [CBK289513] | 88.6486%
28 | C/C=C/c1ccc(OCCCn2nnc3ccccc32)c(OC)c1 [CBK269271] | 145.902%
29 | CC[C@@H]1CCCCN1C(=O)c1ccc(Cl)c(C)c1 [CBK084565] | 131.154%
30 | COc1ccc([C@@H]2CN(C)C[C@H]2NC(=O)Nc2ccc(Cl)c(Cl)c2)cc1OC [CBK081111] | 12.3546%
31 | O=C(COc1ccccc1)N1CCC(c2cc3cnccc3[nH]2)CC1 [CBK283449] | 96.6483%
32 | COc1ccc(Cc2nnc(SCC(=O)Nc3ccc(Br)c(C)c3)n2C)cc1 [CBK265816] | 100%
33 | COc1ccc(S(=O)(=O)NCc2ccc3c(c2)OCO3)cc1C(=O)O [CBK264070] | 100%
34 | CC(C)C[C@@H]1N[C@H](C(=O)NC2CCC2)Cc2cn(Cc3nccn3C)c3cccc1c23 [CBK289422] | 111.931%
35 | Cc1noc(C)c1C(=O)N1CCC(c2ccncc2)CC1 [CBK282334] | 84.5311%
36 | CC1(C)Cc2nc(N3CCOCC3)ncc2C(NC(=O)NC(C)(C)C)C1 (stereo not shown) [CBK306978] | 116.582%
37 | O=C(Nc1cccc(OC(=O)c2cccc(S(=O)(=O)N3CCOCC3)c2)c1)c1ccccc1 [CBK261365] | 100%
38 | CC(C)CC(Nc1ncnc2c1oc1ccccc12)C(=O)O (stereo not shown) [CBK293974] | 141.541%
39 | COc1ccc(CCC(=O)N2CCCc3c(cnn3C)C2)cc1 [CBK285326] | 116.579%
40 | Fc1ccc(-c2nccnc2NCc2ccncc2)cc1 [CBK088964] | 185.265%

Source: PMC12040169 (PLOS Biology, 2025)
